This note sets out measurements from PMC13241479.

The chains behind the UniProt entries cited, without tags or fusion partners. Where a name states a change or a piece, a line headed by the entry shows the natural chain unless it says otherwise. Residues count along the entry.
UniProt Q3MHN2, residues 22-548: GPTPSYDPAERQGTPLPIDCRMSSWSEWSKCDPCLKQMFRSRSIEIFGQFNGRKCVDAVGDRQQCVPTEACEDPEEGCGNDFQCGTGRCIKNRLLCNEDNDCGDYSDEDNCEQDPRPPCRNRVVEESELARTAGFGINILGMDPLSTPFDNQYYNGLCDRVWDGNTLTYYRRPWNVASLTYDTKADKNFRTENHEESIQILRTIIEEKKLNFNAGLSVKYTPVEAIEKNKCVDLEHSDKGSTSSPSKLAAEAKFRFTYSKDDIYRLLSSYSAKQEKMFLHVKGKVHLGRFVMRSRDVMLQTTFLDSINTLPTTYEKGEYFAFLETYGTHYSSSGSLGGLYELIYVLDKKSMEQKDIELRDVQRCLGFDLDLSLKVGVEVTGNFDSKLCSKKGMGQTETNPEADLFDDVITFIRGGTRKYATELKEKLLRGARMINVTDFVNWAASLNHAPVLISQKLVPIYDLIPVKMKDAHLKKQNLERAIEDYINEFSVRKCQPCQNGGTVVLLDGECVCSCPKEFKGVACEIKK
UniProt P12763, residues 19-359: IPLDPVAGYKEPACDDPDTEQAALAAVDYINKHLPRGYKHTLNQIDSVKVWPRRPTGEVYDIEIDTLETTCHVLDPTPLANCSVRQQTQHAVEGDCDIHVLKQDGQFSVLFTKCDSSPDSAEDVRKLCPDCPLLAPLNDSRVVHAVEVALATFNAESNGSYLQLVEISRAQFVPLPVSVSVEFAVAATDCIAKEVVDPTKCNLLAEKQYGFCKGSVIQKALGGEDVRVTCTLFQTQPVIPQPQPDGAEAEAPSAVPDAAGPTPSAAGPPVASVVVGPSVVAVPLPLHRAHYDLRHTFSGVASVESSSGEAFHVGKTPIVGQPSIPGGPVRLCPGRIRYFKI
UniProt Q3SX14: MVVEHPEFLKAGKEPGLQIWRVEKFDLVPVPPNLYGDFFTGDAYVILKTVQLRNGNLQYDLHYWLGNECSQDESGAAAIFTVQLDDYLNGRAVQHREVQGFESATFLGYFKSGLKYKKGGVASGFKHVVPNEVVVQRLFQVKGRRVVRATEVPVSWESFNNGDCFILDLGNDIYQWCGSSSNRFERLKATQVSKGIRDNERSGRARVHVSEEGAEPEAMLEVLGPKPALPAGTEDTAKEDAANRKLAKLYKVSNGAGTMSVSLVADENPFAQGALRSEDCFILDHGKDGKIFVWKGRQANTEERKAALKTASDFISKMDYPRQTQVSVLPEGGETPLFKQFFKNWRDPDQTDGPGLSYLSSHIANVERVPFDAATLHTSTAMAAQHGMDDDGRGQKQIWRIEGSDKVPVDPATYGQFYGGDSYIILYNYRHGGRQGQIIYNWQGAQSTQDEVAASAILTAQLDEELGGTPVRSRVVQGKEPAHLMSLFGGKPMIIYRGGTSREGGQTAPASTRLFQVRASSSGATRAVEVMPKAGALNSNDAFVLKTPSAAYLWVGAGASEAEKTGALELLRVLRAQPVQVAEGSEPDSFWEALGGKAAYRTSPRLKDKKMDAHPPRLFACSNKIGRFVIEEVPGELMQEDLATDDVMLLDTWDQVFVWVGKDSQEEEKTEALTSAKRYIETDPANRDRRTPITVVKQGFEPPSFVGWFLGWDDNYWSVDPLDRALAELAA
UniProt Q3T0E5: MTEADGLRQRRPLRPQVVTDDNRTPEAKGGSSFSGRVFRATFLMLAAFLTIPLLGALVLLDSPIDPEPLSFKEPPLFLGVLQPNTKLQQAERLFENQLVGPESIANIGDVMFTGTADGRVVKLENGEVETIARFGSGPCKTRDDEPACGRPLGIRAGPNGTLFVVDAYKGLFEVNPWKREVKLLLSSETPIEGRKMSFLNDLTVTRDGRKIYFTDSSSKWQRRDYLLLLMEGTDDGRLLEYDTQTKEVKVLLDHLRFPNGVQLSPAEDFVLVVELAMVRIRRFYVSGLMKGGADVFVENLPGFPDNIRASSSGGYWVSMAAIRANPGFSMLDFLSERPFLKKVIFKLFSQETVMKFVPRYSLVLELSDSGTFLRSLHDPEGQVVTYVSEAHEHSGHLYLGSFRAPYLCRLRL

No constants are given. Whether binding was seen depends on the method and setting. In cells and extracts the contact can be indirect. A yes stands for co-enrichment or nearness to the bait. Other partners may have been found. Tags and fused reporters may be left off the sequences shown.

This assay addresses T1, His-ALFA-SAA1-N terminus (human SAA1 19-94 aa) (human) (UniProt P0DJI8).
T1 sequence: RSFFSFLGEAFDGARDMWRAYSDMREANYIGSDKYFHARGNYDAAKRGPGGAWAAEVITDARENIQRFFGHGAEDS
Description: affinity purification with mass spectrometry; ALFA-SAA1 (8 μM, urea-denatured stock) added to 50% bovine plasma in PBS, 16 h at 4°C; cleared at 20,000g; ALFA-nanobody beads 1 h at 4°C; washed four times with PBS; LC-MS/MS; only the target purified.
In the case of “C9 (bovine plasma) (from UniProt Q3MHN2 22-548)”, the binding result is “binds”.

On to APOB (bovine plasma), for which the binding entry was “binds”.

On to “AHSG (bovine plasma) (from UniProt P12763 19-359)”, for which the binding result is “binds”.

With SERPINA10 (bovine plasma), the binding result is listed as “binds”.

Take COL6A3 (bovine plasma): the binding result is reported as “binds”.

clusterin (bovine plasma): the binding result was “binds”.

In the case of COL18A1 (bovine plasma), the binding entry is “binds”.

VTN (bovine plasma): the binding entry is “binds”.

Turning to SERPIND1 (bovine plasma), the binding entry is reported as “binds”.

Regarding “GSN (bovine plasma) (from UniProt Q3SX14 1-731)”, the binding entry is recorded as “binds”.

Take “APMAP (bovine plasma) (from UniProt Q3T0E5)”: the binding result is on record as “binds”.
